For experiment [1], the target named is Flag-tagged P0^BrA (P0^BrA–Flag) (Brassica yellows virus genotype A (BrYV-A)). Briefly: co-IP; proteins co-expressed in N. benthamiana leaves by agro-infiltration, 2 dpi; clarified lysate on anti-Flag M2 agarose beads 3 h; 25 mM Tris-HCl pH 7.5, 150 mM NaCl, 1 mM EDTA, 10% glycerol, 0.1% Triton X-100; immunoblot. For orientation: A western blot detects proteins with antibodies after separation by electrophoresis.

In experiment [2] the target is BD–P0^BrA (Brassica yellows virus genotype A P0 protein fused to the GAL4 binding domain) (Brassica yellows virus genotype A (BrYV-A)). Briefly: two-hybrid; directed GAL4 yeast two-hybrid (Matchmaker System 3), yeast mating, BD and AD fusions, growth on SD/−WL and SD/−AHLW, 30 °C.
Experiment [3] shares this target. Briefly: two-hybrid; Clontech Matchmaker GAL4 Two-Hybrid System 3 library screen: BD–P0^BrA bait (strain Y187) against an Arabidopsis cDNA library.

These are yes or no findings as the source states them, for the method shown. A result given as binding can be weak or reduced; the word gives no strength. For part of these data: Tags and fused reporters may be left off the sequences shown. For part of these data: Binding seen in cells or lysates may run through a third protein.

B1: AtRAF2 as used in the co-immunoprecipitation with P0^BrA (protein, UniProt Q9LU63 51-220)
chain: SNLAQDFLGDFGARDPYPEEIASQFGDKVLGCQSTEHKILIPNASVLSLSQLQCSPVSSSQPPLSGDDARTLLHKVLGWSIVDNEAGGLKIRCMWKVRDFGCGVELINRIHKVAEASGHYPSLHLESPTQVRAELFTSSIGGLSMNDFIMAAKIDDIKTSDLSPRKRAWA
As for B1, the binding result in experiment [1] is “binds”.

B2: AtRAF2 (Arabidopsis Rubisco assembly factor 2), GAL4 yeast two-hybrid fusions (AD–AtRAF2; BD fusion) (protein, UniProt Q9LU63 1-220)
chain: MAATSSSPPCNISASSLLLRQPSRSILKVFGLLPPVSRNNRKLGRLTVTRSNLAQDFLGDFGARDPYPEEIASQFGDKVLGCQSTEHKILIPNASVLSLSQLQCSPVSSSQPPLSGDDARTLLHKVLGWSIVDNEAGGLKIRCMWKVRDFGCGVELINRIHKVAEASGHYPSLHLESPTQVRAELFTSSIGGLSMNDFIMAAKIDDIKTSDLSPRKRAWA
For the molecule B2, the binding result in experiment [2] and in experiment [3] was “binds” throughout.
